We go through one substance from article PMC8345877.

No constants are given. Whether binding was seen depends on the method and setting. In cells and extracts the contact can be indirect. Binding can be weak; no strength is given. Tags and fused reporters may be left off the sequences shown.

This assay deals with T1, CD97β-2HA (β subunit of CD97 with a double HA epitope on its intracellular C terminus) (mouse) (UniProt Q9Z0M6).
T1 sequence: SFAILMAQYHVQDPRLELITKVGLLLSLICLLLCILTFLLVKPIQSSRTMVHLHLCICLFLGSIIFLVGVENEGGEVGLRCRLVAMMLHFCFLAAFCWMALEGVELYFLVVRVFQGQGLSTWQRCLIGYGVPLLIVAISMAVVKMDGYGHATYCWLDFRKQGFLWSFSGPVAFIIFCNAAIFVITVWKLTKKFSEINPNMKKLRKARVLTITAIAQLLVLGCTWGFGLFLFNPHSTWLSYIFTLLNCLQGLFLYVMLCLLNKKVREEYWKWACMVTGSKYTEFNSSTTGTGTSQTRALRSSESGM
Description: co-IP; anti-HA sepharose beads on the post-nuclear lysate of MutuDCs stably expressing CD97-2HA and GFP or GFP-SteD, activated with 100 ng/ml LPS for 24 h; lysis buffer 150 mM NaCl, 50 mM Tris pH 7.4, 5 mM EDTA, 0.5% Triton X100, 5% glycerol; 7 h at 4°C; immunoblot. Background: Immunoblotting shows a protein as a band on a membrane.

Consider GFP-SteD (S. Typhimurium), for which the binding result was “binds”.
